Source: article PMC13575423
Results are given in words; binding and its absence hold for the method and conditions named.

Target: Trm10-Δ63 (S. cerevisiae) (UniProt Q12400)
Experiment: cross-linking; BS3 (50-fold molar excess), 6 μM Trm10 with 2 μM tRNA^Gly-GCC, with or without SAM; 20 mM HEPES pH 7.5, 150 mM NaCl, 5 mM BME; room temperature 30 min; SDS-PAGE, Coomassie; both purified

B1: Trm10-Δ63 (domain or fragment, UniProt Q12400 64-293)
chain: AKIQEYIDRGEEVPQELIREPRINVNQTDSGIEIILDCSFDELMNDKEIVSLSNQVTRAYSANRRANHFAEIKVAPFDKRLKQRFETTLKNTNYENWNHFKFLPDDKIMFGDEHISKDKIVYLTADTEEKLEKLEPGMRYIVGGIVDKNRYKELCLKKAQKMGIPTRRLPIDEYINLEGRRVLTTTHVVQLMLKYFDDHNWKNAFESVLPPRKLDAEAKSASSSPAPKDT
  binding: no binding (tested: 6 μM Trm10 with 2 μM tRNA^Gly-GCC)
